{"sequences": {"note": "By UniProt entry, the sequences of proteins in these tests, tags left out. Residues count along the entry.", "UniProt O43681": "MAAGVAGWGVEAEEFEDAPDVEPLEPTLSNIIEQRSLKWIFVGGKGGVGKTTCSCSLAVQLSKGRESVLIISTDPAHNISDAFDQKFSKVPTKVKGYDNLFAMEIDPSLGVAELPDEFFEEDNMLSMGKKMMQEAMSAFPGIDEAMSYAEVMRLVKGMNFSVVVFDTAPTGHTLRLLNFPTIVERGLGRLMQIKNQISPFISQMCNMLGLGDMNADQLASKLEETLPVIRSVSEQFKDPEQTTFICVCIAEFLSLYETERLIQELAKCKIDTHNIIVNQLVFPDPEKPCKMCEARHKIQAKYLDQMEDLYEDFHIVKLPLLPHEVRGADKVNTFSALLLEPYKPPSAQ", "UniProt P49069, residues 186-296": "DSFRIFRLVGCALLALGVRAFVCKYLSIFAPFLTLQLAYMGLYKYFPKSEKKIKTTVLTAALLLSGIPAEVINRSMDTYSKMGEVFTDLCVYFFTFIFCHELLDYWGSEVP"}, "source": "paper PMC5447128", "key": {"[1]": {"target": "3xHA-TRC40 (transmembrane domain recognition complex of 40 kDa) (UniProt O43681)", "assay": "co-IP; HEK293T cells co-transfected with HA-TRC40 and FLAG-CAML constructs; lysis in 0.1% Triton X-100, 20 mM HEPES-NaOH pH 7.5, 150 mM NaCl, 10% glycerol; 500 ug lysate; 30 ul anti-HA-affinity matrix (or agarose beads as control) 2 h at 4 C; western blot"}, "[2]": {"target": "T1, Myc-WRB (tryptophan-rich basic protein) (UniProt O00258)", "T1 sequence": "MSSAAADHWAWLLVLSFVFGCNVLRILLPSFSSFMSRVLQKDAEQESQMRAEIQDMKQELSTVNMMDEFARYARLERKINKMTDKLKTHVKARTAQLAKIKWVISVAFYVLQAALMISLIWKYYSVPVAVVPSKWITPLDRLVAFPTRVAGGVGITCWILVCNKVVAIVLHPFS", "assay": "co-IP; HEK293T cells co-transfected with Myc-WRB and FLAG-CAML constructs; lysis in 0.1% Triton X-100, 20 mM HEPES-NaOH pH 7.5, 150 mM NaCl, 10% glycerol; 500 ug lysate; 5 ug anti-Myc (or non-specific IgG) 2 h at 4 C, Protein G magnetic beads 1 h at 4 C; western blot"}}, "note": "Results are given in words; binding and its absence hold for the method and conditions named. Binding seen in cells or lysates may run through a third protein. Some results given as binding are weak or reduced against the parent protein; the word gives no strength. For some assays here: Where a sequence is shown, tags or fusion partners need not be part of it."}
{"substance": "FLAG-CAML-C (CAML residues 186-296, C-terminal fragment C3) (from UniProt P49069 186-296) (domain or fragment)", "values": [{"measurement": "binding", "setting": "[1]", "value": "no binding"}, {"measurement": "binding", "setting": "[2]", "value": "binds"}]}
